Assay results as given in PubChem BioAssay AID2002 (Broad Institute, 2009).
The other results are listed elsewhere or left out. Results with a measured potency or affinity are listed apart. Where no call is shown, the source marks the result inconclusive.

Test: PubChem AID 2002
Conditions: H4 neuroglioma luciferase reporter, luminescence activation; at 12 µM (top of the series) unless noted

For `Cc1cc(C)nc(SC2=CS(=O)(=O)c3ccccc32)n1`, which activation is on record?
Its activation is 57.5%.

Which activation does the source give for `CC(/C=N/NC(=O)c1cccc(F)c1)=C\c1ccccc1` here?
The activation was 144%.

With `Fc1ccc2nc(Nc3nc4c(s3)CCCC4)sc2c1` as the compound, how does the activation read?
The activation was 159%.

With `FC(F)Oc1ccc(C2N=C(c3ccccc3)NO2)cc1` (stereo unspecified) as the compound, how does the activation read?
The activation was 136%.

With `O=C(Nc1ccc(-c2nc3ccccc3s2)c(OC(=O)c2ccccc2)c1)c1ccccc1` as the compound, how does the activation read?
The activation was 111%.

With `O=C(Nc1ccccc1)C(=O)Nc1ccc2c(c1)N(C(=O)C1CC1)CCC2` as the compound, how does the activation read?
Its activation is 48.3%.

For `O=C(NC1CCCCC1)C(=S)NC1CCCCC1`, which activation is on record?
Its activation is 127%.

For `O=C(NCCS(=O)(=O)NCCc1ccccc1)c1ccc2c(c1)OCO2`, which activation is on record?
Its activation is 80.5%.

Which activation does the source give for `Oc1ccc(/C=N/Nc2cccc3cccnc23)c(O)c1` here?
Its activation is 157%.

With `COc1cc2ccccc2cc1C(=O)Nc1ccc(N2CCN(C)CC2)cc1` as the compound, how does the activation read?
Its activation is 66%.

For `C[C@@H]1C[C@@H]2O[C@H]2/C=C\C=C\C(=O)Cc2c(Cl)c(O)cc(O)c2C(=O)O1`, which activation is on record?
Its activation is 51.1% [at 6 µM].

Which activation does the source give for `Cc1c(-c2nc(-c3ccc(C(F)(F)F)cc3)no2)n(C)oc1=O` here?
Its activation is 91%.

For `Cc1csc2nc(CSc3nc4ccccc4o3)c(Br)n12`, which activation is on record?
The activation was 138% [at 6 µM].

With `CCOC(=O)c1sc2nc(NC(=O)C(C)(C)C)sc2c1C` as the compound, how does the activation read?
Its activation is 167% [at 3 µM].

For `CCCCNc1ncnc2c1cnn2-c1ccccc1`, which activation is on record?
Its activation is 42.5%.

Which activation does the source give for `O=[N+]([O-])c1nn(-c2ccc3c(c2)OCCO3)n(O)c1=NCCC1=CCCCC1` here?
The activation was 119%.

For `Cc1ccc(-n2c(C)cc(C(=O)CSc3nncs3)c2C)cc1`, which activation is on record?
Its activation is 62.6%.

With `Cc1c(-c2nc(N)nc(Nc3ccccc3F)n2)oc2ccccc12` as the compound, how does the activation read?
Its activation is 79.5%.

Which activation does the source give for `c1ccc(C2=NNC(c3ccccn3)=NN2)nc1` here?
Its activation is -4.6%.

With `C/C(=N\Nc1nc2c(s1)CCCC2)c1ccccc1` as the compound, how does the activation read?
The activation was 71%.

For `Nc1nc(-c2sc3nc4c(cc3c2N)CCCC4)nc(N2CCOCC2)n1`, which activation is on record?
Its activation is 125%.

For `O=C(O)c1ccc(N/N=C/c2cn(Cc3ccc(F)cc3)c3ccccc23)cc1`, which activation is on record?
Its activation is 51.1%.

With `COc1ccc(CCNC(=O)c2ccc3c(c2)OCCO3)cc1` as the compound, how does the activation read?
Its activation is 109%.

With `Nc1nc(NC(=O)c2cccs2)nn1-c1ccccc1` as the compound, how does the activation read?
The activation was 80.1%.

For `O=C(N/N=C/c1cc(Br)cs1)c1ccc2c(c1)OCCO2`, which activation is on record?
The activation was 87.7% [at 3 µM].

With `Cc1ccc(S(=O)(=O)c2cc3ccccc3oc2=O)cc1` as the compound, how does the activation read?
The activation was 24.7%.

With `CC(C)N=C1NN=C(c2ccc(Cl)c(Cl)c2)CS1` as the compound, how does the activation read?
Its activation is 61.4%.

With `COc1cc2sc3ccc(-c4ccc5[nH]ccc5c4)cc3c(=O)c2cc1OC` as the compound, how does the activation read?
Its activation is 165%.

Which activation does the source give for `O=C(Nc1ccc2cn[nH]c2c1)c1ccccc1F` here?
The activation was 116%.

With `Cc1ccc(-c2nc(N/N=C/c3ccccc3[N+](=O)[O-])c3ccccc3n2)cc1` as the compound, how does the activation read?
Its activation is 108%.

Which activation does the source give for `Cc1cc(C(=O)COC(=O)C2=COCCO2)c(C)n1-c1cccc(F)c1` here?
Its activation is 31.7%.

Which activation does the source give for `CN=c1scc(-c2ccco2)n1/N=C/c1ccc(O)c(O)c1` here?
The activation was 126%.

With `CCCn1c(C)cc(C(=O)COc2ncnc3sccc23)c1C` as the compound, how does the activation read?
Its activation is 54.4%.

For `Nc1nn(-c2cccc(F)n2)cc1-c1ccccc1`, which activation is on record?
Its activation is 46%.

Which activation does the source give for `Nc1ncn([C@H]2C[C@H](O)[C@@H](CO)O2)c(=O)n1` here?
Its activation is 109%.

For `O=c1c(Cl)c(NCCCO)cnn1-c1nc2ccccc2[nH]1`, which activation is on record?
Its activation is 99.1%.

With `CCSc1ncc(/C=N/Nc2ccc([N+](=O)[O-])cc2)n1C` as the compound, how does the activation read?
Its activation is 126%.

For `COc1ccc(NC(=O)NC(=O)c2ccccc2)cc1`, which activation is on record?
The activation was 78.4%.

Which activation does the source give for `Cc1ccc(/C=N/N=C/c2ccc(C)s2)s1` here?
The activation was 89.1%.

For `COc1ccccc1C(=O)COC(=O)c1ccc(N(C)C)cc1`, which activation is on record?
Its activation is 143%.

With `CC(C)(C)c1ccc(OCCn2ccccc2=O)cc1` as the compound, how does the activation read?
Its activation is 103%.

With `COc1ccc(N/C=C\C(=O)c2ccc3c(c2)OCO3)cc1` as the compound, how does the activation read?
The activation was 164% [at 6 µM].

Which activation does the source give for `CCOC(=O)c1c(C)[nH]c(C2=NNC(=NC(C)COC)SC2)c1C` (stereo unspecified) here?
The activation was 40.9%.

Which activation does the source give for `Cc1ccccc1Nc1nc(N)nc(CSc2ccc(F)cc2)n1` here?
The activation was 143%.

Which activation does the source give for `N#Cc1ccsc1NC(=O)COC(=O)c1ccc2ccccc2c1` here?
Its activation is 129%.

With `Cc1ccc(C2=CSC3=NNC4(CCCCC4)NN23)cc1` as the compound, how does the activation read?
The activation was 131%.

Which activation does the source give for `Clc1ccc2nc(CSCc3ccccc3)cn2c1` here?
Its activation is 141% [at 6 µM].

For `Cc1ccc(-n2c(C)cc(C(=O)COC(=O)c3ccc[nH]c3=O)c2C)cc1`, which activation is on record?
Its activation is 105% [at 3 µM].

For `CCc1ccc(NC(=O)c2ccccc2NC(=O)C2CCCO2)cc1` (stereo unspecified), which activation is on record?
Its activation is 97.8%.

For `COc1ccc(-n2ncc3c(N4CCc5ccccc54)ncnc32)cc1`, which activation is on record?
The activation was 43.1%.

For `CCN1C(=S)SC(=O)C1=C1C=C(C)N(CCO)C(C)=C1`, which activation is on record?
Its activation is 70%.

With `c1ccc(N2CCN(c3nc4cc5c(cc4s3)OCCO5)CC2)cc1` as the compound, how does the activation read?
Its activation is 87.5%.

With `c1csc(C2=NNC(=NC3CCCCC3)SC2)c1` as the compound, how does the activation read?
Its activation is 70.7%.

With `CC(C)(C)C1CCc2c(sc3nc(SCC(N)=O)nc(N)c23)C1` (stereo unspecified) as the compound, how does the activation read?
Its activation is 107%.

With `CC1CCc2c(sc(NC(=O)c3nc4ncccn4n3)c2C#N)C1` (stereo unspecified) as the compound, how does the activation read?
Its activation is 92.4%.

For `CN(C)/C=N/c1cnc(C(=O)c2ccc(Cl)cc2)n1C`, which activation is on record?
Its activation is 122%.
